Data as given in PubChem BioAssay AID743121 (NCATS, 2013)

- Aim: 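Genes whose silencing strengthens cell killing by camptothecin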 (primary screen)
- Cell system: MDA-MB-231 cells, a human breast cancer line
- Reagent: single siRNA against human genes, 20 nM siRNA (0.8 pmol per well)
- Duration: 120 h (drug added 48 h after transfection, read 72 h later)
- Treatment: camptothecin 20 nM (about EC30) for 72 h; vehicle 0.1% DMSO in parallel plates
- Read-out: 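Cell viability by ATP luminescence (CellTiter-Glo) as % of non-targeting siRNA wells, and the log2 ratio of viability without drug over viability with camptothecin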
- Scale: log2 vehicle/camptothecin viability: higher = stronger sensitisation to camptothecin; viability with camptothecin and viability without drug: higher = more viable cells
- Hit rule: 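Active genes have an RSA gene-level p-value below 0.001, computed from the ratios of their separate siRNAs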
This is an unselected part of about 26,000 reagents. In the full data, 167 (0.63%) are marked active. 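Calls are per gene from RSA p-values that are not deposited; an individual active-marked siRNA can sensitise only weakly.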 A number with no mark means an inactive call. The numbers tell different reagents against one gene apart.

gene | siRNA no. | log2 vehicle/camptothecin viability | viability with camptothecin (% of control) | viability without drug (% of control)
UBASH3A (GeneID 53347) | 1 | -0.372 | 66.4 | 51.3
UBASH3A (GeneID 53347) | 2 | -0.0508 | 38.8 | 37.5
UBASH3A (GeneID 53347) | 3 | -0.786 | 38.2 | 22.1
BMP10 (GeneID 27302) | 1 | 0.756 | 48.6 | 82.1
BMP10 (GeneID 27302) | 2 | -0.06 | 100 | 96
BMP10 (GeneID 27302) | 3 | -0.00402 | 13.3 | 13.3
BMP10 (GeneID 27302) | 4 | -0.425 | 62.4 | 46.5
PDIA3 (GeneID 2923) | 1 | -0.623 | 43.4 | 28.2
PDIA3 (GeneID 2923) | 2 | -0.266 | 24.9 | 20.7
PDIA3 (GeneID 2923) | 3 | -0.229 | 91.4 | 78
PDIA3 (GeneID 2923) | 4 | 0.146 | 93 | 103
CAV1 (GeneID 857) | 1 | -0.118 | 107 | 98.8
CAV1 (GeneID 857) | 2 | -0.367 | 79.9 | 61.9
CAV1 (GeneID 857) | 3 | 0.484 | 61.4 | 85.9
PA2G4 (GeneID 5036) | 1 | -0.528 | 61.4 | 42.6
PA2G4 (GeneID 5036) | 2 | 0.191 | 77.1 | 88
PA2G4 (GeneID 5036) | 3 | -0.245 | 67.8 | 57.2
ZNRF3 (GeneID 84133) | 1 | -0.224 | 103 | 88.1
ZNRF3 (GeneID 84133) | 2 | -0.718 | 86.5 | 52.6
ZNRF3 (GeneID 84133) | 3 | -0.552 | 56.5 | 38.5
ZNRF3 (GeneID 84133) | 4 | 0.11 | 50.5 | 54.5
SERPINA10 (GeneID 51156) | 1 | -0.178 | 90.5 | 80
SERPINA10 (GeneID 51156) | 2 | -0.591 | 82.6 | 54.8
SERPINA10 (GeneID 51156) | 3 | -0.271 | 103 | 85.4
MOXD1 (GeneID 26002) | 1 | 0.573 | 33 | 49
MOXD1 (GeneID 26002) | 2 | 0.0951 | 72.8 | 77.8
MOXD1 (GeneID 26002) | 3 | -0.0823 | 82.8 | 78.2
MOXD1 (GeneID 26002) | 4 | 0.0964 | 89.8 | 96
RPL7A (GeneID 6130) | 1 | -0.846 | 38.7 | 21.5
RPL7A (GeneID 6130) | 2 | -0.296 | 35.6 | 29
RPL7A (GeneID 6130) | 3 | -0.472 | 37 | 26.6
SKIL (GeneID 6498) | 1 | -0.511 | 95.1 | 66.7
SKIL (GeneID 6498) | 2 | -0.217 | 95.6 | 82.2
SKIL (GeneID 6498) | 3 | -0.371 | 74.5 | 57.6
TUBA1A (GeneID 7846) | 1 | -0.0597 | 100 | 96.2
TUBA1A (GeneID 7846) | 2 | 0.133 | 27.3 | 30
TUBA1A (GeneID 7846) | 3 | -0.675 | 82 | 51.4
TUBA1A (GeneID 7846) | 4 | -0.329 | 70.8 | 56.4
RECQL4 (GeneID 9401) | 1 | -0.31 | 33.3 | 26.8
RECQL4 (GeneID 9401) | 2 | 0.223 | 68.5 | 79.9
RECQL4 (GeneID 9401) | 3 | -0.245 | 66.1 | 55.8
RANBP9 (GeneID 10048) | 1 | -0.227 | 47.2 | 40.3
RANBP9 (GeneID 10048) | 2 | -0.631 | 98.7 | 63.7
RANBP9 (GeneID 10048) | 3 | -0.309 | 89.9 | 72.5
RANBP9 (GeneID 10048) | 4 | 0.168 | 52.5 | 59
NCR2 (GeneID 9436) | 1 | -0.15 | 93 | 83.8
NCR2 (GeneID 9436) | 2 | 0.0404 | 68 | 69.9
NCR2 (GeneID 9436) | 3 | -0.285 | 99 | 81.3
DAG1 (GeneID 1605) | 1 | -0.0673 | 91.6 | 87.4
DAG1 (GeneID 1605) | 2 | -0.47 | 69.7 | 50.4
DAG1 (GeneID 1605) | 3 | 0.000556 | 96.5 | 96.6
DAG1 (GeneID 1605) | 4 | 0.119 | 37.5 | 40.7
ADORA2B (GeneID 136) | 1 | 0.261 | 78 | 93.5
ADORA2B (GeneID 136) | 2 | 0.0136 | 33.9 | 34.2
ADORA2B (GeneID 136) | 3 | 0.171 | 62.2 | 70.1
ADORA2B (GeneID 136) | 4 | 0.0363 | 82.3 | 84.4
CATSPER4 (GeneID 378807) | 1 | 0.00914 | 82.6 | 83.1
CATSPER4 (GeneID 378807) | 2 | 0.112 | 84.9 | 91.8
CATSPER4 (GeneID 378807) | 3 | -0.186 | 110 | 97
PTGES3 (GeneID 10728) | 1 | -0.0392 | 82.7 | 80.4
PTGES3 (GeneID 10728) | 2 | -0.244 | 107 | 90.1
SF3A1 (GeneID 10291) | 1 | 0.239 | 49.7 | 58.6
SF3A1 (GeneID 10291) | 2 | -0.45 | 32.2 | 23.6
SF3A1 (GeneID 10291) | 3 | -0.381 | 18.3 | 14.1
CEBPB (GeneID 1051) | 1 | 0.0922 | 30.6 | 32.6
CEBPB (GeneID 1051) | 2 | -0.409 | 130 | 97.8
CEBPB (GeneID 1051) | 3 | 0.111 | 88.5 | 95.6
CEBPB (GeneID 1051) | 4 | -0.173 | 89.9 | 79.7

A stretch from the list above:
gene | siRNA no. | log2 vehicle/camptothecin viability | viability with camptothecin (% of control) | viability without drug (% of control)
UBASH3A (GeneID 53347) | 3 | -0.786 | 38.2 | 22.1
BMP10 (GeneID 27302) | 1 | 0.756 | 48.6 | 82.1
BMP10 (GeneID 27302) | 2 | -0.06 | 100 | 96
BMP10 (GeneID 27302) | 3 | -0.00402 | 13.3 | 13.3
BMP10 (GeneID 27302) | 4 | -0.425 | 62.4 | 46.5
PDIA3 (GeneID 2923) | 1 | -0.623 | 43.4 | 28.2
PDIA3 (GeneID 2923) | 2 | -0.266 | 24.9 | 20.7
PDIA3 (GeneID 2923) | 3 | -0.229 | 91.4 | 78
